Earlier results, collected in US4069016A, “Assay for bilirubin” (priority 1977, dated 1978).

Test system: Human Serum Albumin
Conditions: pH 7.4, 37° C; cited from earlier work

SMILES: Nc1ccc(S(N)(=O)=O)cc1 [Sulfanilamide, reference compound]
- Binding Constant of primary or high affinity site(s) KA: < 20 M⁻¹
